We go through 9 targets from the supplement of paper PMC7666118.

The chains behind the UniProt entries cited, without tags or fusion partners. Where a name states a change or a piece, a line headed by the entry shows the natural chain unless it says otherwise.
UniProt P04080: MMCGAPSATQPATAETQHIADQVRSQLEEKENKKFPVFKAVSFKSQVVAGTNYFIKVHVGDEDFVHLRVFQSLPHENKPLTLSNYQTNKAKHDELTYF
UniProt Q9NVP1: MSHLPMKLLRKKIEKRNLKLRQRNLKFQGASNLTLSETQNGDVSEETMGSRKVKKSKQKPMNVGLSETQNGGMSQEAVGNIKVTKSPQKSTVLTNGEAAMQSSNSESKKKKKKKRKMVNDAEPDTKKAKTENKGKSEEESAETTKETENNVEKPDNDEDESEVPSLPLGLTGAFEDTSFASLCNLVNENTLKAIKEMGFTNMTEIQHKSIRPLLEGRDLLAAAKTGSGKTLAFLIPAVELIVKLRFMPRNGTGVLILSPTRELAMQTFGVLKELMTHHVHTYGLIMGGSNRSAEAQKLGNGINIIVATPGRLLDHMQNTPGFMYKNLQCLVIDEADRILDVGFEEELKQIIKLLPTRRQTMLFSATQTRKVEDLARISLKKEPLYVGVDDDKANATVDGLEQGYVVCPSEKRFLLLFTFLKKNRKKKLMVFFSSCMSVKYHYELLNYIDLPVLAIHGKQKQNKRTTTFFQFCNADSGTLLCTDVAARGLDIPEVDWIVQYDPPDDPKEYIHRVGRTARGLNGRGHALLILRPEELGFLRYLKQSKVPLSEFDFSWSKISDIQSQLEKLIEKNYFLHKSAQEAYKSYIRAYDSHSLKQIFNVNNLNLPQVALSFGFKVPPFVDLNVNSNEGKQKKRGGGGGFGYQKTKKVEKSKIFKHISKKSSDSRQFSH
UniProt Q13206, whole entry: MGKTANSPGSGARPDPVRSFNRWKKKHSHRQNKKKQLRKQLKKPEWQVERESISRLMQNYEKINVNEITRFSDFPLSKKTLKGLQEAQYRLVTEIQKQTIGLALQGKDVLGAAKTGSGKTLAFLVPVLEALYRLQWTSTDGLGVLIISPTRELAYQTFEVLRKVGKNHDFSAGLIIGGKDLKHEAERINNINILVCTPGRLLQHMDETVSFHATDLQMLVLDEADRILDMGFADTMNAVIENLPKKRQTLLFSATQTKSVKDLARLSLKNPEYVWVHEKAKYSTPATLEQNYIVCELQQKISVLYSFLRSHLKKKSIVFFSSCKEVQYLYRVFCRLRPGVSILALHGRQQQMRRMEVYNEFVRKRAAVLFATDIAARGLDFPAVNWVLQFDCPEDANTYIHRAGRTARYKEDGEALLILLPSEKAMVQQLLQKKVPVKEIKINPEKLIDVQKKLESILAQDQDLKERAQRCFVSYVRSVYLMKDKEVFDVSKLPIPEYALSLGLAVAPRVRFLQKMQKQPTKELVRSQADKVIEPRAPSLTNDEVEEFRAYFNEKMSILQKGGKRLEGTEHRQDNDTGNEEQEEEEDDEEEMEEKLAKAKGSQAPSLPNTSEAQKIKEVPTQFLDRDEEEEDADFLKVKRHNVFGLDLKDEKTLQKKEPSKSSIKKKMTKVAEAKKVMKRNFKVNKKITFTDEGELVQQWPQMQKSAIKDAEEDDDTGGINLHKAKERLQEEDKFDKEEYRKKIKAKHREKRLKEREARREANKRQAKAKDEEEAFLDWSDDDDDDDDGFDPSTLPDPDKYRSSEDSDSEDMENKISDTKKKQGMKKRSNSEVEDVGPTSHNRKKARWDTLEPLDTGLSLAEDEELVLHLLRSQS
UniProt Q7L2E3: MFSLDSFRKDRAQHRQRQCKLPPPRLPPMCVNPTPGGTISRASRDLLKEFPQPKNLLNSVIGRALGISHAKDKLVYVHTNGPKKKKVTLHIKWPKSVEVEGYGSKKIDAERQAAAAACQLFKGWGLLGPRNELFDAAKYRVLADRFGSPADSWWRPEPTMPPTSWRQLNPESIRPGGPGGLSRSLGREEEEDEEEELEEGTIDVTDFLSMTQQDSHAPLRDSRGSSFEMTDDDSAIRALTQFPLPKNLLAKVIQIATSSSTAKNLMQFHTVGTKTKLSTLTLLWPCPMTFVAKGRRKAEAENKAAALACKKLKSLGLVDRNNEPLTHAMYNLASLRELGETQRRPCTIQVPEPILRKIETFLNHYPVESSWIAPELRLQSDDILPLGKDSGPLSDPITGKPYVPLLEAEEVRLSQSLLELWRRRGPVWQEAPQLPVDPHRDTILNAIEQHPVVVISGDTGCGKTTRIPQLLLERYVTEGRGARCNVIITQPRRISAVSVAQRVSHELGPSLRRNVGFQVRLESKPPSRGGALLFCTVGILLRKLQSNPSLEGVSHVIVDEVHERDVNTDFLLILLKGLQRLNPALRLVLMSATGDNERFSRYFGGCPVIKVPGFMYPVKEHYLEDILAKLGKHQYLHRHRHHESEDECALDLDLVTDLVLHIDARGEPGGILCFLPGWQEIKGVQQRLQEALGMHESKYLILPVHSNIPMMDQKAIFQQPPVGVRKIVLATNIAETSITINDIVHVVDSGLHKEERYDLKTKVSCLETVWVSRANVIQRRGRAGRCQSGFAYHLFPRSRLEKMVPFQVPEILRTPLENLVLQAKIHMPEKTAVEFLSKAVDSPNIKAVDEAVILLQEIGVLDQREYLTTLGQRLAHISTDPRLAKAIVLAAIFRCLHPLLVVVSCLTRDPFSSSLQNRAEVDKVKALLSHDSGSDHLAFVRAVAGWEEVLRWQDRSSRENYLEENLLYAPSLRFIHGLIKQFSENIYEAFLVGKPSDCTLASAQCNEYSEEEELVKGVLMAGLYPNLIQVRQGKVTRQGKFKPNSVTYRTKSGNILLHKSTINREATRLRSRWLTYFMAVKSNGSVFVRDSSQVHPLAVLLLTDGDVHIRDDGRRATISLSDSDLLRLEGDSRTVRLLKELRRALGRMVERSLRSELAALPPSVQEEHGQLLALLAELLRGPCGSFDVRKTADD
UniProt Q8IUI8: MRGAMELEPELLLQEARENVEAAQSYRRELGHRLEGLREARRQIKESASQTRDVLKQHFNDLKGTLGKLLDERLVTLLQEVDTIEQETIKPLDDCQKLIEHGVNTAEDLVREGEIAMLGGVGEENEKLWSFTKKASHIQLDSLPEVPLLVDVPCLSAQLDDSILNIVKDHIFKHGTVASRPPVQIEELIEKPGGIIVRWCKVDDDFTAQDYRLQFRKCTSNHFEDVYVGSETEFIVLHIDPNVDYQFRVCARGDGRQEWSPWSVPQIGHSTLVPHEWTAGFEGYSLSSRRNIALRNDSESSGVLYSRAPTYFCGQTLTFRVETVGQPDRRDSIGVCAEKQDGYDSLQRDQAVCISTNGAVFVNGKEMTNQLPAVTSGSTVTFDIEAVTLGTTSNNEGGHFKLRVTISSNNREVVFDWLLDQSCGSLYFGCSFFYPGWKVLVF
UniProt Q8NBI2: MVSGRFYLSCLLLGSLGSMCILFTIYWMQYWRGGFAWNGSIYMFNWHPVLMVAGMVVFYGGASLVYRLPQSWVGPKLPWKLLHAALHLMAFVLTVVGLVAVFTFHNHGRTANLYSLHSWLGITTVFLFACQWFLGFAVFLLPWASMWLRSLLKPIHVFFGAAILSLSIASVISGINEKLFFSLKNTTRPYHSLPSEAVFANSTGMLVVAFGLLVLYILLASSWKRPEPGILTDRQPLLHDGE
UniProt P52429: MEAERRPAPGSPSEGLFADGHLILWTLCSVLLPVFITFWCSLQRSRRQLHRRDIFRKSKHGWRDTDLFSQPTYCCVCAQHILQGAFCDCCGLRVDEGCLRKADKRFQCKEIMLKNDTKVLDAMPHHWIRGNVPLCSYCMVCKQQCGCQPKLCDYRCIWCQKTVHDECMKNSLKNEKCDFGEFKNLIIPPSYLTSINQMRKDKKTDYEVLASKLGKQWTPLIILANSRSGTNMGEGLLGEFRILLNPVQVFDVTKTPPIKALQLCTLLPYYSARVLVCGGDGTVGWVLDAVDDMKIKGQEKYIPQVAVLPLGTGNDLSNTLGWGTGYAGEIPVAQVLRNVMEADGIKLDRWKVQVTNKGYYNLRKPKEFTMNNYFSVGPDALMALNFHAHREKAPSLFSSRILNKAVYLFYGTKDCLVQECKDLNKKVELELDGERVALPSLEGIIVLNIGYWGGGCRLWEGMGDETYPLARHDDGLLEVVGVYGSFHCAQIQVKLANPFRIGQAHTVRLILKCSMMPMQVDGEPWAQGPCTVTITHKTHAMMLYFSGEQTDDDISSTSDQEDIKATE
UniProt Q9Y5B0: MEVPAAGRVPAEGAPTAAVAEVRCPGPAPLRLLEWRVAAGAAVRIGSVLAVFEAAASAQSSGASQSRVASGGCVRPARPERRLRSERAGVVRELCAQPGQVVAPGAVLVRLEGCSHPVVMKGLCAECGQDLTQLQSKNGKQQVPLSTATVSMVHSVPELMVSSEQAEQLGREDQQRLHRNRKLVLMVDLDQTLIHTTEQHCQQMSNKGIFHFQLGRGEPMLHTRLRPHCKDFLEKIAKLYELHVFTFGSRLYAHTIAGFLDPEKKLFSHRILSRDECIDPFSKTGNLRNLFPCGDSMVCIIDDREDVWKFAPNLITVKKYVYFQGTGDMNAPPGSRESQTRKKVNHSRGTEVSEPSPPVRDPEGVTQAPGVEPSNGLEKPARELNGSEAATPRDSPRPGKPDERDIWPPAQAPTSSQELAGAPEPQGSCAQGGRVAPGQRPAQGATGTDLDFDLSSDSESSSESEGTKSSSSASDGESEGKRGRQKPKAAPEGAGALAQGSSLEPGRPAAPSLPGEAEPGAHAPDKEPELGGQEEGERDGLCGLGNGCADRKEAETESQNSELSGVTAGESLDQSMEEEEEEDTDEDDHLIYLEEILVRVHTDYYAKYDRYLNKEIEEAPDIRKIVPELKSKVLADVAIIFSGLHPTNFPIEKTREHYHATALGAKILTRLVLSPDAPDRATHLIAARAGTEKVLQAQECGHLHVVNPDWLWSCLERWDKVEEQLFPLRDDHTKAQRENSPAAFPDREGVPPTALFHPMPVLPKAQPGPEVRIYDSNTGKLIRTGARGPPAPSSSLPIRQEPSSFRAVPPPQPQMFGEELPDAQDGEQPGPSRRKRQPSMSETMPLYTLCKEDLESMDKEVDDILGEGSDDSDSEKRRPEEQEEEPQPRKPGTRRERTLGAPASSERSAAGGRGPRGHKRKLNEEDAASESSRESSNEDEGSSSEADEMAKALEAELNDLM
UniProt Q8TB03: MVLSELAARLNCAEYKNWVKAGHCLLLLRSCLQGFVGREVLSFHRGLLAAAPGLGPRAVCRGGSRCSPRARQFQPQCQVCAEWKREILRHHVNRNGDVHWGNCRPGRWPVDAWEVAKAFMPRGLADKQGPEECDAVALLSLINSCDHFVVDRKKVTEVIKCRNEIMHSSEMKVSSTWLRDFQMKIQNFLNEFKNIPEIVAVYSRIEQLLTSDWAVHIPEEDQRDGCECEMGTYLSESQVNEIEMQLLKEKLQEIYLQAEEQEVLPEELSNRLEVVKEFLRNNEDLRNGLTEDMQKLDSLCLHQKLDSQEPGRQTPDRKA

This is one part of the list.

Compound in this experiment: COc1ccc(Cn2ccc3ccc(C(=O)NO)cc32)cc1
Put plainly: dose-dependent thermal stabilisation call (2D-TPP, DLPTP, 10% FDR) (binary (1 = stabilised)); higher = stabilised by the compound. To be noted: system: HL-60 intact cells; concentration range 0.04-10 µM.
For the target CSTB (UniProt P04080), the “dose-dependent thermal stabilisation call” value is inactive: 0.
As for DDX18 (UniProt Q9NVP1), the figure is inactive: 0.
In the case of DDX10 (UniProt Q13206), the “dose-dependent thermal stabilisation call” value was inactive: 0.
For DHX30 (UniProt Q7L2E3), the “dose-dependent thermal stabilisation call” value is inactive: 0.
As to CRLF3 (UniProt Q8IUI8), the “dose-dependent thermal stabilisation call” value was inactive: 0.
As for CYBASC3 (UniProt Q8NBI2), the figure is inactive: 0; as for DGKE (UniProt P52429), inactive: 0; as for CTDP1 (UniProt Q9Y5B0), inactive: 0.
As for CXORF38 (UniProt Q8TB03), the figure is inactive: 0.
